Taken from: PubChem BioAssay AID504791 (Drosophila RNAi Screening Center, 2011)

Aim: 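Genes of the fly required for silencing by miRNA, siRNA or endo-siRNA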 (primary screen)
System: Drosophila S2-derived reporter cells
Knock-down reagent: long dsRNA against Drosophila genes, about 150-250 ng dsRNA per well (siRNA assay); about 80-120 ng (miRNA assay)
Duration: about 5 days (siRNA assay); about 4 days (miRNA assay)
Treatment: copper sulfate induction of reporters: 25 µM (siRNA assay); 200 mM stated (miRNA assay), 1-2 days before reading
Read-out: 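Per-well ratio of Renilla over firefly light, expressed relative to that plate's average ratio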
Direction: siRNA reporter hit score: higher = 3 marks a strong hit with raised ratio; -3 a strong hit with lowered ratio
Units: stable assay Renilla, run 1 in luminescence; stable assay firefly, run 1 in luminescence
Hit rule: 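a well was a first-pass pick when its plate-scaled ratio rose above 1.5 (siRNA assay) or 1.6 (miRNA assay), or dropped below 0.6; a gene counted only if two separate dsRNAs agreed on retest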
The screen tested about 23,000 reagents; below is an unselected part of those with a known target gene and a result. In the full data, 199 (0.86%) are marked active. 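Plate-scaled ratios behind the calls are not deposited; printed light signals are raw; many rows marked increased or decreased are still called inactive.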 Names joined by + are all predicted targets of the reagent. Reagent sequences are not shown.

| siRNA reporter hit score | stable siRNA reporter change | miRNA reporter change | stable assay Renilla, run 1 | stable assay firefly, run 1 | activity call | target | PubChem SID |
| --- | --- | --- | --- | --- | --- | --- | --- |
| – | – | – | 7782 | 5.42e5 | inactive | CG10948 | SID104189598 |
| – | – | – | 10363 | 4.31e5 | inactive | Ogdh (Oxoglutarate dehydrogenase) | SID104189646 |
| – | – | – | 7594 | 4.45e5 | inactive | Ogdh (Oxoglutarate dehydrogenase) | SID104189647 |
| – | reporter ratio raised past the hit cutoff | – | 33576 | 3.77e5 | inactive | AP-2mu (Adaptor Protein complex 2, mu subunit) | SID104193882 |
| – | – | – | 7395 | 4.85e5 | inactive | CG16826 | SID104182319 |
| – | – | – | 6623 | 4.84e5 | inactive | dUTPase (Deoxyuridine triphosphatase) | SID104181790 |
| – | – | – | 2995 | 3.40e5 | inactive | fd19B (forkhead domain 19B) | SID104200480 |
| – | – | – | 5956 | 5.37e5 | inactive | xmas-1 (retired record) | SID104200178 |
| – | – | – | 7895 | 3.08e5 | inactive | CG17930 | SID104195084 |
| – | reporter ratio lowered past the hit cutoff | – | 4906 | 4.69e5 | active | CSN7 (COP9 signalosome subunit 7) | SID104186599 |
| – | reporter ratio lowered past the hit cutoff | – | 5019 | 5.56e5 | active | CSN7 (COP9 signalosome subunit 7) | SID104186600 |
| – | – | – | 5539 | 2.95e5 | inactive | CG8834 | SID104187075 |
| – | – | – | 7015 | 4.95e5 | inactive | CG7220 | SID104185027 |
| – | – | – | 6922 | 3.55e5 | inactive | CG7220 | SID104186810 |
| – | – | – | 8480 | 5.15e5 | inactive | CG10700 | SID104181888 |
| – | – | – | 3676 | 2.32e5 | inactive | Vsx1 (Visual system homeobox 1) | SID104198141 |
| – | – | – | 4200 | 1.76e5 | inactive | Vsx1 (Visual system homeobox 1) | SID104198142 |
| – | – | – | 3636 | 2.78e5 | inactive | Vsx1 (Visual system homeobox 1) | SID104202361 |
| – | – | – | 7487 | 3.54e5 | inactive | Nep1 (Neprilysin 1) | SID104198180 |
| – | – | – | 4372 | 1.74e5 | inactive | Nep1 (Neprilysin 1) | SID104198181 |
| – | – | – | 4563 | 3.64e5 | inactive | CG31337 | SID104192773 |
| – | – | – | 4532 | 3.36e5 | inactive | Gpb5 (Glycoprotein hormone beta 5) | SID104201033 |
| – | – | – | 7002 | 3.73e5 | inactive | CG13362 | SID104197689 |
| – | – | – | 7940 | 3.96e5 | inactive | CG6191 | SID104185730 |
| – | – | – | 4867 | 2.63e5 | inactive | CG6191 | SID104202484 |
| – | – | – | 7489 | 3.25e5 | inactive | CG3581 | SID104195291 |
| – | – | – | 8150 | 3.85e5 | inactive | CG13484 | SID104189818 |
| – | – | – | 8407 | 5.05e5 | inactive | CG3347 | SID104180389 |
| – | – | – | 8213 | 4.06e5 | inactive | CG17378 | SID104182408 |
| – | – | – | 12404 | 7.01e5 | inactive | gish (gilgamesh) | SID104195946 |
| – | – | – | 7915 | 4.20e5 | inactive | ssp5 (short spindle 5) | SID104194747 |
| – | – | – | 6915 | 2.97e5 | inactive | CG4743 | SID104195428 |

The list goes on, starting with the last 5 of the part before.
| siRNA reporter hit score | stable siRNA reporter change | miRNA reporter change | stable assay Renilla, run 1 | stable assay firefly, run 1 | activity call | target | PubChem SID |
| --- | --- | --- | --- | --- | --- | --- | --- |
| – | – | – | 8407 | 5.05e5 | inactive | CG3347 | SID104180389 |
| – | – | – | 8213 | 4.06e5 | inactive | CG17378 | SID104182408 |
| – | – | – | 12404 | 7.01e5 | inactive | gish (gilgamesh) | SID104195946 |
| – | – | – | 7915 | 4.20e5 | inactive | ssp5 (short spindle 5) | SID104194747 |
| – | – | – | 6915 | 2.97e5 | inactive | CG4743 | SID104195428 |
| – | – | – | 6278 | 4.29e5 | inactive | CG6961 + CG18259 | SID104199591 |
| – | – | – | 7611 | 4.52e5 | inactive | CG6961 + CG18259 | SID104199811 |
| – | – | – | 6270 | 5.18e5 | inactive | CG3708 | SID104198438 |
| – | – | – | 4768 | 3.41e5 | inactive | CG32461 | SID104191386 |
| – | – | reporter ratio raised past the hit cutoff | 6064 | 3.36e5 | inactive | tbrd-3 | SID104184087 |
| – | – | reporter ratio raised past the hit cutoff | – | – | inactive | tbrd-3 | SID104204854 |
| – | – | – | 6830 | 4.11e5 | inactive | CG11113 | SID104185831 |
| – | – | – | 5771 | 3.13e5 | inactive | Prosap | SID104186174 |
| – | – | – | 8510 | 4.34e5 | inactive | Prosap | SID104186873 |
| – | – | – | 6574 | 3.53e5 | inactive | CG14257 | SID104194544 |
| – | – | – | 7150 | 3.61e5 | inactive | cd (cardinal) | SID104195949 |
| -3 | – | – | 11155 | 3.78e5 | inactive | zda (zonda) | SID104186728 |
| -3 | reporter ratio raised past the hit cutoff | reporter ratio raised past the hit cutoff | 22390 | 1.26e6 | active | Ars2 (Arsenic resistance protein 2) | SID104184685 |
| – | – | – | 7418 | 3.64e5 | inactive | Traf6 (TNF-receptor-associated factor 6) | SID104198517 |
| – | – | – | 7454 | 4.05e5 | inactive | prel (preli-like) | SID104187063 |
| – | – | – | 3023 | 2.67e5 | inactive | DIP-beta (Dpr-interacting protein beta) | SID104200253 |
| – | – | – | 5215 | 4.36e5 | inactive | DIP-beta (Dpr-interacting protein beta) | SID104200281 |
| – | – | – | 5555 | 3.22e5 | inactive | DIP-beta (Dpr-interacting protein beta) | SID104200282 |
| – | – | – | 5627 | 5.61e5 | inactive | DIP-beta (Dpr-interacting protein beta) | SID104200297 |
| – | – | – | 9323 | 4.97e5 | inactive | Fancm (Fanconi anemia group M helicase) | SID104196140 |
| – | – | – | 6240 | 3.29e5 | inactive | CG16989 | SID104198327 |
| – | – | – | 8947 | 4.74e5 | inactive | wdn (wings down) | SID104196887 |
| – | – | – | 6007 | 1.34e6 | inactive | Swip-1 (Swiprosin-1) | SID104181875 |
| – | – | – | 6775 | 3.36e5 | inactive | Swip-1 (Swiprosin-1) | SID104181876 |
| – | – | – | 7940 | 4.34e5 | inactive | Mfe2 (peroxisomal Multifunctional enzyme type 2) | SID104199661 |
